Record: PubChem BioAssay AID1259425 (University of Nebraska Medical Center, 2018)
Here is a random part of about 14,000 deposited reagents. Not all columns of the deposit are shown. Not given: the time to read-out.

Screen: 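Seek colon cancer weak points whose silencing resembles KSR1 loss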 (primary screen)
Cell system: HCT116 human colon cancer cells
Knock-down reagent: siRNA pool against human genes, 50 nM siRNA
Measurement: 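mRNA of six signature genes measured together by branched-DNA assay after 50 nM siRNA pool, blank removed, divided by geometric mean of two housekeeping genes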
Reading the numbers: BNIP3L mRNA: higher = more BNIP3L transcript after knockdown

BRME1 (break repair meiotic recombinase recruitment factor 1): BNIP3L mRNA, set 1 = 0.0799
PCDHGA1 (protocadherin gamma subfamily A, 1): BNIP3L mRNA, set 1 = 0.0914
ENPP2 (ectonucleotide pyrophosphatase/phosphodiesterase 2): BNIP3L mRNA, set 1 = 0.152
UBTF (upstream binding transcription factor): BNIP3L mRNA, set 1 = 0.178
CHMP6 (charged multivesicular body protein 6): BNIP3L mRNA, set 1 = 0.165
MXD3 (MAX dimerization protein 3): BNIP3L mRNA, set 1 = 0.165
KHSRP (KH-type splicing regulatory protein): BNIP3L mRNA, set 1 = 0.189
ABHD17A (abhydrolase domain containing 17A, depalmitoylase): BNIP3L mRNA, set 1 = 0.0976
FAM178B (family with sequence similarity 178 member B): BNIP3L mRNA, set 1 = 0.176
PGRMC1 (progesterone receptor membrane component 1): BNIP3L mRNA, set 1 = 0.0509
SCRN1 (secernin 1): BNIP3L mRNA, set 1 = 0.124
DGCR2 (DiGeorge syndrome critical region gene 2): BNIP3L mRNA, set 1 = 0.0988

No new results follow: an excerpt of the list.
KHSRP (KH-type splicing regulatory protein): BNIP3L mRNA, set 1 = 0.189
ABHD17A (abhydrolase domain containing 17A, depalmitoylase): BNIP3L mRNA, set 1 = 0.0976
